No constants are given. Whether binding was seen depends on the method and setting. In cells and extracts the contact can be indirect. Some results given as binding are weak or reduced against the parent protein; the word gives no strength.

In assay [1] the target is T1, endothelial NO synthase (eNOS), murine, endogenous (mouse (endogenous in murine lung endothelial cells)) (UniProt P70313).
T1 sequence: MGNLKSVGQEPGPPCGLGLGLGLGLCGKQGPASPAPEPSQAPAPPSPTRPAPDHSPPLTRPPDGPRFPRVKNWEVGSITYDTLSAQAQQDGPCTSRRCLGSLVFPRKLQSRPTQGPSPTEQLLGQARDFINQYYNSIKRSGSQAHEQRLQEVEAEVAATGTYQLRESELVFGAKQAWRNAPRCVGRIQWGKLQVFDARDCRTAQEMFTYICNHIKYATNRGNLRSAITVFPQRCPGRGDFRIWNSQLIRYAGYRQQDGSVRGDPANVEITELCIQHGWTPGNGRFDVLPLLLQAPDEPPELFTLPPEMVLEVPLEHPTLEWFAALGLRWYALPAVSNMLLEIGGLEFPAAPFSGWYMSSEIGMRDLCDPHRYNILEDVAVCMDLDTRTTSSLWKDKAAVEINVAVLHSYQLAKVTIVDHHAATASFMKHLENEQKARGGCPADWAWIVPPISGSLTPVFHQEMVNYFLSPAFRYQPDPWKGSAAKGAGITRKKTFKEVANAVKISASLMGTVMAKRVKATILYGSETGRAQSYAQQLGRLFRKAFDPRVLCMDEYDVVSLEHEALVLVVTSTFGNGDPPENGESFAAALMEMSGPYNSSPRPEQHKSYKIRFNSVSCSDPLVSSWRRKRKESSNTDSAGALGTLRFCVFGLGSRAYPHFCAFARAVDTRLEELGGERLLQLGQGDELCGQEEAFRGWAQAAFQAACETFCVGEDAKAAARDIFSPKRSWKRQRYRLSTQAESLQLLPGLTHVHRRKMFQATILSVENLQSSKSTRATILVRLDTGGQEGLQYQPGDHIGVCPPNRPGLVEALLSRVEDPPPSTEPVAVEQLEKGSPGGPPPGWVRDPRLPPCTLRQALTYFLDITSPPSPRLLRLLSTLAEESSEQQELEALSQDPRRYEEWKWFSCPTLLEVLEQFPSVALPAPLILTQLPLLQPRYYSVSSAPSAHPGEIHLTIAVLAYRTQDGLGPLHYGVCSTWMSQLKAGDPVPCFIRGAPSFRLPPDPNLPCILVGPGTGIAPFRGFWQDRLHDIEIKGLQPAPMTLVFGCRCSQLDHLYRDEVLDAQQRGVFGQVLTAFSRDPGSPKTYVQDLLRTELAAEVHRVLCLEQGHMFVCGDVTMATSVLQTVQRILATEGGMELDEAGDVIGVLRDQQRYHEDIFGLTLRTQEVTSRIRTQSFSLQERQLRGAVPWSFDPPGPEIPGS
As to the kind of experiment: co-IP.

The target of assay [2] is T2, endothelial NO synthase (eNOS), human, endogenous (human (endogenous in human umbilical vein endothelial cells)) (UniProt P29474).
T2 sequence: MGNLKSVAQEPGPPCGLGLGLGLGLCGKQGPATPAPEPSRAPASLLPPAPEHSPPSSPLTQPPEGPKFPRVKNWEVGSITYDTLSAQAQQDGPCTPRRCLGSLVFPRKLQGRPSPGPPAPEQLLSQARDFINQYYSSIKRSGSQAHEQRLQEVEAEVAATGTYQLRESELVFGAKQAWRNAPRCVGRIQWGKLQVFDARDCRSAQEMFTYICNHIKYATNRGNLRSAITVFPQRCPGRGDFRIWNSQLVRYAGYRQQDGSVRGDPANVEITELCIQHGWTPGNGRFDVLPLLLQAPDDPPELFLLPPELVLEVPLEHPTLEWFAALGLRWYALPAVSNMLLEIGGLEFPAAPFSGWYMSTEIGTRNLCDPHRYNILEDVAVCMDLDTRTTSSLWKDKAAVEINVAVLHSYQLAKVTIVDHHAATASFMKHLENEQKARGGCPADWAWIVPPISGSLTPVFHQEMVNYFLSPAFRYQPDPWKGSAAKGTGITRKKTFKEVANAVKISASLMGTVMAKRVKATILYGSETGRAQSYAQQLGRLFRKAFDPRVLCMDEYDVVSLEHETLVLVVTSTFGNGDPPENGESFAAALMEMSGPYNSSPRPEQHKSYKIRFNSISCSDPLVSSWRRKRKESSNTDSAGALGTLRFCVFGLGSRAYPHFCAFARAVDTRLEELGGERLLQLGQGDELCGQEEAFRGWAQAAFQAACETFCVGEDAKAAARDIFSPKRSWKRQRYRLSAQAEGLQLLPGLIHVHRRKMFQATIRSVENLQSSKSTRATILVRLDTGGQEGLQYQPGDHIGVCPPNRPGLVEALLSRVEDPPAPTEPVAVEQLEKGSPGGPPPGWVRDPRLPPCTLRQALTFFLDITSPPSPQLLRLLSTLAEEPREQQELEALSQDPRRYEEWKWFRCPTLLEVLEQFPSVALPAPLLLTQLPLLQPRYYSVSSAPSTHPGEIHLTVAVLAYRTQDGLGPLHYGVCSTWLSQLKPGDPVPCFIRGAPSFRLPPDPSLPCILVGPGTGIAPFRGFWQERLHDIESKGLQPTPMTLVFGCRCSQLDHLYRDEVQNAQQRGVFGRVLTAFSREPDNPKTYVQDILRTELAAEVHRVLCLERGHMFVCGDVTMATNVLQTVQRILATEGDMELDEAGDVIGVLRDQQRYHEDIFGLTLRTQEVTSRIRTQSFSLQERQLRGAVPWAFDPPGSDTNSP
As to the kind of experiment: co-IP.

B1: double-stranded RNA-specific adenosine deaminase (ADAR1), murine, endogenous (enzyme, UniProt Q99MU3 1-1178)
chain: MSQGFRGPTGVFPHQTQSYLDPSHEHSKWRYPQPQGPESYPRSFQLQQIEFLKGRLPEAPLIGIQTQSLPPFLPGHWPRFPGPPAQDRQLEIWEFPRSVTLRNQGFHIGPPLPPPHSRGTPWRGADGLCSHFRELSISQSPEQKVLNRLEELGEGKATTAHVLARELRIPKRDINRILYSLEKKGKLHRGRGKPPLWSLVPLSQAWTQPPGVVNPDSCIQEFPRGEPGLDSEDGDPASDLEGPSEPLDMAEIKEKICDYLFNVSNSSALNLAKNIGLTKARDVTSVLIDLERQGDVYRQGATPPIWYLTDKKRERLQMKRSTHSAPAPTPTAVPEATRSPSFPACHPPPAGASSSVAASKRVENGQEPAIKHESRHEARPGPMRLRPHAYHNGPSRAGYVASENGQWATDDIPDNLNSIHTAPGEFRAIMEMPSFYSPTLPRCSPYKKLTECQLKNPVSGLLEYAQFTSQTCDFNLIEQSGPSHEPRFKFQVVINGREFPPAEAGSKKVAKQDAAVKAMAILLREAKAKDSGQPEDLSHCPMEEDSEKPAEAQAPSSSATSLFSGKSPVTTLLECMHKLGNSCEFRLLSKEGPAHDPKFQYCVAVGAQTFPPVSAPSKKVAKQMAAEEAMKALQEEAASSADDQSGGANTDSLDESMAPNKIRRIGELVRYLNTNPVGGLLEYARSHGFAAEFKLIDQSGPPHEPKFVYQAKVGGRWFPAVCAHSKKQGKQDAADAALRVLIGESEKAEQLGFAEVTPVTGASLRRTMLLLSRSPDAHPKTLPLSGSTFHDQIAMLSHRCFNALTNSFQPSLLGRKILAAIIMKRDPEDMGVVVSLGTGNRCVKGDSLSLKGETVNDCHAEIISRRGFIRFLYSELMKYNHHTAKNSIFELARGGEKLQIKKTVSFHLYISTAPCGDGALFDKSCSDRAVESTESRHYPVFENPKQGKLRTKVENGEGTIPVESSDIVPTWDGIRLGERLRTMSCSDKILRWNVLGLQGALLTHFLQPVYLKSVTLGYLFSQGHLTRAICCRVTRDGKAFEDGLRYPFIVNHPKVGRVSVYDSKRQSGKTKETSVNWCMADGYDLEILDGTRGTVDGPGKELSRVSKKNIFLQFKKLCSFRARRDLLQLSYGEAKKAARDYDLAKNYFKKSLRDMGYGNWISKPQEEKNFYLCPVPND
For B1, the binding entry in assay [1] is listed as “binds”.

B2: double-stranded RNA-specific adenosine deaminase (ADAR1), human, endogenous (enzyme, UniProt P55265 1-1226)
chain: MNPRQGYSLSGYYTHPFQGYEHRQLRYQQPGPGSSPSSFLLKQIEFLKGQLPEAPVIGKQTPSLPPSLPGLRPRFPVLLASSTRGRQVDIRGVPRGVHLRSQGLQRGFQHPSPRGRSLPQRGVDCLSSHFQELSIYQDQEQRILKFLEELGEGKATTAHDLSGKLGTPKKEINRVLYSLAKKGKLQKEAGTPPLWKIAVSTQAWNQHSGVVRPDGHSQGAPNSDPSLEPEDRNSTSVSEDLLEPFIAVSAQAWNQHSGVVRPDSHSQGSPNSDPGLEPEDSNSTSALEDPLEFLDMAEIKEKICDYLFNVSDSSALNLAKNIGLTKARDINAVLIDMERQGDVYRQGTTPPIWHLTDKKRERMQIKRNTNSVPETAPAAIPETKRNAEFLTCNIPTSNASNNMVTTEKVENGQEPVIKLENRQEARPEPARLKPPVHYNGPSKAGYVDFENGQWATDDIPDDLNSIRAAPGEFRAIMEMPSFYSHGLPRCSPYKKLTECQLKNPISGLLEYAQFASQTCEFNMIEQSGPPHEPRFKFQVVINGREFPPAEAGSKKVAKQDAAMKAMTILLEEAKAKDSGKSEESSHYSTEKESEKTAESQTPTPSATSFFSGKSPVTTLLECMHKLGNSCEFRLLSKEGPAHEPKFQYCVAVGAQTFPSVSAPSKKVAKQMAAEEAMKALHGEATNSMASDNQPEGMISESLDNLESMMPNKVRKIGELVRYLNTNPVGGLLEYARSHGFAAEFKLVDQSGPPHEPKFVYQAKVGGRWFPAVCAHSKKQGKQEAADAALRVLIGENEKAERMGFTEVTPVTGASLRRTMLLLSRSPEAQPKTLPLTGSTFHDQIAMLSHRCFNTLTNSFQPSLLGRKILAAIIMKKDSEDMGVVVSLGTGNRCVKGDSLSLKGETVNDCHAEIISRRGFIRFLYSELMKYNSQTAKDSIFEPAKGGEKLQIKKTVSFHLYISTAPCGDGALFDKSCSDRAMESTESRHYPVFENPKQGKLRTKVENGEGTIPVESSDIVPTWDGIRLGERLRTMSCSDKILRWNVLGLQGALLTHFLQPIYLKSVTLGYLFSQGHLTRAICCRVTRDGSAFEDGLRHPFIVNHPKVGRVSIYDSKRQSGKTKETSVNWCLADGYDLEILDGTRGTVDGPRNELSRVSKKNIFLLFKKLCSFRYRRDLLRLSYGEAKKAARDYETAKNYFKKGLKDMGYGNWISKPQEEKNFYLCPV
As for B2, in assay [2], the binding entry is recorded as “binds”.
